The reference is the same well before dosing, and untreated signal decays as well.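 Labels refer to human fibroblasts, largely primary: uterine (C12385, HUF), lung (H6013), bone (Hs27A), adrenal (HADF), skin (WS1), plus mammary HMF and breast cancer-associated Hs343T. Cancer lines are basal-like or mesenchymal-like triple-negative breast cancer. The paper counts as hits responses shifting over 3x the replicate standard deviation. The tissue of the other fibroblasts is not given here.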
System: MDAMB231
Assay: relative JC-1 red fluorescence (viability) vs pre-drug, coculture with fibroblast (fraction); higher = more viable cancer cells
Procedure: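 JC-1 labelled TNBC cells cocultured 1:1 (1,500 cells each) with CellTrace Violet stained primary or stromal fibroblasts in 384-well plates in FluoroBrite medium, treated with one of 42 anticancer drugs at 0.1, 1, 10 or 100 uM. JC-1 red fluorescence (mitochondrial integrity in cancer cells only) was read by plate reader every 8 h for 72 h. Values are normalised to each well's pre-drug value. The stock of one drug was tenfold lower, so its dose labels may be too high.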

CC(=O)c1c(C)c2cnc(Nc3ccc(N4CCNCC4)cn3)nc2n(C2CCCC2)c1=O [Palbociclib]
relative JC-1 red fluorescence
Details	8 h	16 h	24 h	32 h	40 h	48 h	56 h	64 h	72 h
0.1 µM, coculture fibroblast: C12385	0.781	0.74363	0.665	0.632	0.577	0.547	0.511	0.515	0.499
0.1 µM, coculture fibroblast: H6013	0.888	0.81	0.76	0.7402	0.70675	0.673	0.6566	0.641	0.6
0.1 µM, coculture fibroblast: H6019	0.77	0.663	0.677	0.632	0.595	0.595	0.562	0.571	0.551
0.1 µM, coculture fibroblast: H6076	0.8571	0.761	0.704	0.682	0.651	0.628	0.624	0.61	0.611
0.1 µM, coculture fibroblast: H6231	0.934	0.827	0.749	0.69	0.644	0.61	0.567	0.545	0.519
0.1 µM, coculture fibroblast: HADF	0.8926	0.8044	0.7377	0.709	0.669	0.619	0.596	0.586	0.538
0.1 µM, coculture fibroblast: HCFa	0.8979	0.814	0.789	0.759	0.712	0.671	0.648	0.623	0.587
0.1 µM, coculture fibroblast: HCPF	0.88115	0.779	0.718	0.699	0.654	0.617	0.582	0.558	0.541
0.1 µM, coculture fibroblast: HHSteC	0.9213	0.856	0.802	0.747	0.689	0.658	0.628	0.608	0.574
0.1 µM, coculture fibroblast: HMF	0.952	0.847	0.766	0.723	0.686	0.641	0.606	0.58	0.556
0.1 µM, coculture fibroblast: HPFa	0.93374	0.88	0.8164	0.756	0.719	0.672	0.622	0.589	0.536
0.1 µM, coculture fibroblast: HUF	0.837	0.731	0.748	0.617	0.56	0.546	0.504	0.508	0.488
0.1 µM, coculture fibroblast: Hs5	0.856	0.7718	0.722	0.692	0.661	0.617	0.589	0.56	0.548
0.1 µM, coculture fibroblast: Hs27A	0.876	0.8071	0.7678	0.7349	0.682	0.614	0.625	0.603	0.551
0.1 µM, coculture fibroblast: Hs343T	0.86	0.871	0.799	0.766	0.71	0.663	0.608	0.58	0.553
0.1 µM, coculture fibroblast: WS1	0.762	0.667	0.631	0.567	0.521	0.493	0.459	0.458	0.443
1 µM, coculture fibroblast: C12385	0.812	0.758	0.745	0.709	0.667	0.645	0.613	0.619	0.608
1 µM, coculture fibroblast: H6013	0.916	0.8657	0.8384	0.823	0.788	0.772	0.772	0.756	0.736
1 µM, coculture fibroblast: H6019	0.797	0.751	0.7038	0.685	0.6415	0.629	0.582	0.564	0.515
1 µM, coculture fibroblast: H6076	0.913	0.823	0.802	0.787	0.7611	0.739	0.7244	0.7212	0.7157
1 µM, coculture fibroblast: H6231	0.906	0.8235	0.7736	0.736	0.688	0.671	0.636	0.622	0.603
1 µM, coculture fibroblast: HADF	0.903	0.854	0.83	0.796	0.765	0.736	0.732	0.723	0.674
1 µM, coculture fibroblast: HCFa	0.899	0.8408	0.809	0.78	0.734	0.697	0.6762	0.654	0.6228
1 µM, coculture fibroblast: HCPF	0.933	0.864	0.833	0.828	0.781	0.76	0.747	0.726	0.711
1 µM, coculture fibroblast: HHSteC	0.9203	0.886	0.837	0.797	0.763	0.73	0.7	0.687	0.649
1 µM, coculture fibroblast: HMF	0.902	0.832	0.801	0.781	0.741	0.711	0.685	0.671	0.664
1 µM, coculture fibroblast: HPFa	0.862	0.88	0.854	0.792	0.854	0.838	0.815	0.747	0.683
1 µM, coculture fibroblast: HUF	0.926	0.842	0.828	0.756	0.693	0.684	0.632	0.621	0.604
1 µM, coculture fibroblast: Hs5	0.935	0.872	0.838	0.808	0.78	0.738	0.703	0.677	0.669
1 µM, coculture fibroblast: Hs27A	0.9318	0.8801	0.85076	0.823	0.774	0.712	0.721	0.703	0.659
1 µM, coculture fibroblast: Hs343T	0.831	0.864	0.805	0.771	0.709	0.666	0.625	0.609	0.589
1 µM, coculture fibroblast: WS1	0.7975	0.71635	0.6777	0.63	0.599	0.5857	0.547	0.5466	0.531

Source: the supplement of paper PMC6078165
